Reference: patent publication US20090155376A1, “PROTEIN HYDROLYSATE WITH ANTIDIABETIC EFFECT” (MG PHARMA INC., priority 2004, published 2009)
Part of at least one peptide drawing is inferred or uncertain, most often the ends. Where a SMILES comes first, the peptide text is derived from it.

How the values were obtained:
[1] = tested on: humans (Japanese), type II diabetes patients and normal subjects; assay: Sugar tolerance test, inhibitory effect on an increase in blood sugar level (Japanese); type: in vivo; details: patients with type II (non-insulin-dependent) diabetes, peptide not tested in humans
male ICR mice = assay: Sugar tolerance test, inhibitory effect on an increase in blood sugar level (mice); type: in vivo; details: for Blood sugar level (AUC): glucose load, 120 min; for Percentage relative to control (blood sugar level): control = 100%

SMILES: CC(C)[C@H](N)C(=O)N[C@H](C(=O)N[C@@H](Cc1ccc(O)cc1)C(=O)N1CCC[C@H]1C(=O)O)C(C)C [Peptide (VVYP), Val-Val-Tyr-Pro] (H-VVYP-OH)
- Expected activity of inhibiting an increase in blood sugar relative to that of the globin proteolysate [1]: about 5000 times
- Blood sugar level (AUC) (male ICR mice; 1 μg/mouse intragastric): 1537 ± 486 mg/dL · 120 min
- Percentage relative to control (blood sugar level) (male ICR mice; 1 μg/mouse): 87%
- Blood sugar level (AUC) (male ICR mice; 2 μg/mouse intragastric): 892 ± 210 mg/dL · 120 min
- Percentage relative to control (blood sugar level) (male ICR mice; 2 μg/mouse): 54%
- Blood sugar level (AUC) (male ICR mice; 10 μg/mouse intragastric): 644 ± 140 mg/dL · 120 min
- Percentage relative to control (blood sugar level) (male ICR mice; 10 μg/mouse): 40%
- Activity of reducing blood sugar relative to that of the globin proteolysate (male ICR mice; mice, sugar tolerance test): more than 1000 times
